In all, about 33,000 sequences were measured (“E-score (-0.5 to 0.5)”: median about -0.015, highest 2% from about 0.3 on). The list shows a part of the results.
Each sequence was assayed against T1, Abf1 (UniProt P14164) (assay: PBM E-score (8-mer binding enrichment) (E-score (-0.5 to 0.5)); higher = stronger / more preferred TF binding). Conditions: protein concentration: 200 nM; construct: GST-full length.
T1 sequence: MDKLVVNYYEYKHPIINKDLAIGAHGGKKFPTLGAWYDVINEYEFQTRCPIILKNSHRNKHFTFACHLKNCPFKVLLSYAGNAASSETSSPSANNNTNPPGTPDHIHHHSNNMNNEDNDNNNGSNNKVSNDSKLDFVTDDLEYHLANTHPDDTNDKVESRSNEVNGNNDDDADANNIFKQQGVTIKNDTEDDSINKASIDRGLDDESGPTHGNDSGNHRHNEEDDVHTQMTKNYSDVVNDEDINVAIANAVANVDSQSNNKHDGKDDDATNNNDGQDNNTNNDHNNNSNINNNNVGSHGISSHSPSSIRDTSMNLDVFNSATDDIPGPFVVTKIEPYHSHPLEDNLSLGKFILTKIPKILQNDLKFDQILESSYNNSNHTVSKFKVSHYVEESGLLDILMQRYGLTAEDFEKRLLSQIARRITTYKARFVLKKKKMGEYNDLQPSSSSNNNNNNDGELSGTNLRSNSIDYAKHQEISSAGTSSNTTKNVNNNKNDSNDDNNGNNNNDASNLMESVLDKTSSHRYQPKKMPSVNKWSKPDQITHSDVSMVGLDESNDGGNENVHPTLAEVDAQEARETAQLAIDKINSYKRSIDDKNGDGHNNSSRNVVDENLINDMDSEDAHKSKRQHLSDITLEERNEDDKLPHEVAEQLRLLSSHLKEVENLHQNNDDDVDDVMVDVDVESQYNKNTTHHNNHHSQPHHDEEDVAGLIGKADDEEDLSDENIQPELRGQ
Procedure: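 Universal 'all 10-mer' protein binding microarrays (Agilent AMADID 015681) probed with GST-tagged S. cerevisiae TFs (full-length or DBD) made by in vitro transcription/translation (PURExpress), about 100-200 nM. Bound TF was detected with fluorescent anti-GST. Each ungapped 8-mer (which stands for itself and its reverse complement) is scored by the PBM enrichment score (E-score), a modified Wilcoxon-Mann-Whitney statistic from -0.5 to +0.5, computed with the Universal PBM Analysis Suite. Scale: above 0.35 generally sequence-specific binding.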

Sequence	PBM E-score
AACGCCCC	-0.0138
AATCCTTG	-0.213
GGAGGCGA	-0.179
AGCTGAGC	-0.149
CTGCGATC	-0.144
AAAGGCAT	0.0285
AAGTCAAC	0.0281
CAGCGACC	-0.171
AATATCAC	0.441
AGTTCTCG	0.0252
TCGCCAAA	-0.0101
ATTTGCTG	0.106
CCTCATTA	0.133
ATCTTAAA	0.0373
ATACTTCA	0.0492
ACGGCTCT	0.227
ATCCCCGA	-0.116
CAATAAGA	0.0753
CAAGCGGA	-0.103
CCTTGCTA	0.0311
GAGCCCCC	-0.283
GTTTATAA	0.156
CGACCTAA	0.141
CGAGTCTC	-0.0241
CACCCCTC	-0.0463

Not a retest: entries from further up.
Sequence	PBM E-score
GAGCCCCC	-0.283
GTTTATAA	0.156

The list continues:

Sequence	PBM E-score
AGAAGAGG	-0.211
ATAACTAC	0.144
ACCCGTGC	0.104
CCTGCAGG	-0.175
CAAGATTG	0.017
CATAGTCA	0.109
GAAGAAAA	-0.114
GCCACCGC	-0.188
ATCGGTTA	0.0643
CCCTGGCC	-0.178
CTTTATTC	-0.0198
AGATCGCC	0.157
CAGAACGA	0.242
CATAGGAC	-0.122
CGGCTGCA	-0.0811
GTTCTACA	-0.0412
GGGGAAAA	-0.179
AGAAACCA	-0.068
ATCCTAGC	0.0133
ATGCCTGG	-0.00694
ACCTAAAC	-0.0038
CCCATACA	-0.178
ATTGCAGC	-0.0863
ACAGCGGG	-0.0337
ACTTGCAT	-0.176

Sequence	PBM E-score
GCTACGTA	0.276
GACTCGTA	0.0549
ACACATAG	-0.0492
AGAGTGTG	-0.158
ACAGTTAG	0.023
AGCGTCAT	-0.09
CAAAGCGG	-0.0648
CACTATGG	-0.145
CTTTACGC	-0.0735
CAATCCAG	-0.0221
AGCTATTA	0.00176
TCTGACAA	0.0639
CCGTTCCA	0.0898
CGCAACTA	0.0892
CGTTAACG	0.142
CAAGAACC	0.0485
TGCCGTAA	0.071
GAAGGCGC	-0.117
ATAATTCA	0.141
GAGCCTAA	-0.225
CCGACCTA	0.122
GAAACTGA	-0.0678
AAAGACCG	-0.00037
CGTCGCTA	0.205
TCGGTCAA	0.0305

6 records picked at random from the list so far:
Sequence	PBM E-score
ATCTTAAA	0.0373
CCTTGCTA	0.0311
AAAGGCAT	0.0285
CCGTTCCA	0.0898
ACCTAAAC	-0.0038
AACGCCCC	-0.0138

Going on with the list.

Sequence	PBM E-score
CGCCTTGA	-0.135
ATCGAGAT	0.0204
GCACTCCC	-0.296
CAAATCTG	0.0375
CTCCCCGA	-0.147
GATTAAGC	-0.043
ACATAAGT	0.0602
AAACTTCA	0.0314
AAAGTTCT	-0.139
ACGGCGAT	0.313
CACTACAA	0.284
ACGCGACG	0.0907
AATTTAGC	0.116
TAACAATA	0.0567
CAGTGTAC	0.0351
CTCACAAA	-0.216
CGCGTGGC	-0.0699
AATTCAGG	0.0511
ATGGTTGA	-0.0624
ACGGCCAC	0.209
CACAACTA	-0.00249
AATCTACG	0.141
GTGTGAGA	0.0847
AATCAATG	0.222
GGTGCTAA	-0.086

Sequence	PBM E-score
GCTCCTGA	-0.23
CACAAGCG	-0.332
AATGTTAG	-0.0298
ACTGGAAT	0.0649
CGCAGGGC	-0.0334
GAGAGAAC	0.0911
CGGAATAG	-0.00573
TATCTTCA	0.138
CGGTTGCC	0.019
CGCACCCC	-0.13
TAACAGAA	0.0748
TTAGCCAA	-0.00286
ACTGCGGC	-0.218
CCGGGTAG	-0.079
CGTTCGCA	0.183
CGTAACGA	0.0356
ATCTCTCA	0.0639
GCTGGGAA	-0.0941
TAAGTGTA	0.0245
CCTTTATC	-0.0556
CTCCCAGC	-0.0417
ATTATTCA	0.193
TAAGGATA	-0.0106
CGCTTAAA	-0.0257
CGACCCCG	-0.337

Exported with bars between the fields: part of the list above.
Sequence | PBM E-score
CACAAGCG | -0.332
CGCTTAAA | -0.0257

Next results

Sequence	PBM E-score
CATTTTGA	0.17
GCATACAC	-0.102
AAATATAG	0.239
GAGGCTCA	-0.109
AGACTACG	-0.135
CCTTCTTC	-0.206
AATCCTCC	-0.168
ACGGCTGA	0.06
AACTGTCG	0.211
AGCGACAC	0.169
AGCCGACA	-0.188
CTATCTCC	-0.0555
AATCTTCG	0.155
CGGTGATC	0.214
TGAACGCA	0.092
ATGGAAGA	0.0619
ATGTATAA	0.103
ATAAGCAT	-0.0317
CAGGTGGG	-0.193
CAAGATAC	0.047
GGAGATTA	-0.0538
GAAAACAA	-0.00045
TGGGCCAA	-0.148
AAGCGATG	0.158
ACGGACGG	0.077

Sequence	PBM E-score
CGATAGGA	0.0789
CACAGCTA	-0.157
CATTACGC	-0.0418
ATGTGGGC	-0.111
CGTCGCCC	-0.152
CCCCAGCC	-0.122
GCTCCAGA	-0.176
AATCCCAC	-0.135
ATACTAAT	0.12
GCCATGCC	-0.147
GCATTGGA	-0.207
GAAGGGTA	-0.16
CAGATATG	0.00568
ATTCTAGC	0.0874
TCAAAGAA	-0.0306
CATAATAC	0.129
GTGGGTTA	-0.111
AGCATTTC	0.0236
CACTTAAA	-0.0129
CTTCGGAA	-0.00441
ATACTTCG	0.138
GACCCCCC	-0.186

— the supplement of paper PMC3334620
